## Results of single-concentration screens

Data taken from ChEMBL document CHEMBL3988442, “University of Dundee, Small-Polar-MMV Screening Library” (2021).

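Whole-parasite assay of Trypanosoma brucei over 72 hours; the read-out is not stated. Compounds at 30 µM. The record gives no direction; compounds that gave an IC50 in retests scored well above the rest, so higher reads as stronger inhibition. Values scatter widely below zero; nearly all retest evidence comes from the higher of the two concentrations used. About 64,000 compounds were tested under these conditions; 1.5% (about 940) showed 50% or more at least once.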

The filed quantity is “Percent Effect” (%). How 0% and 100% were set is not recorded. Most values in the screen are low, and negative values occur. Compounds were drawn at random from those tested, without regard to their results.

* Cn1ncc2c(NCCC34CCCN3CCC4)nc(C3CCCC3)nc21 : -25.39%
* Cc1ccn(-c2ccccc2NCc2cscn2)n1 : -61.42%
* O=C(CCCN1CCCCC1)NC(C(=O)O)c1cccc(F)c1 (centres undefined) : 8.726%
* Cc1occc1C(=O)NCC(=O)N(C)CCCOc1ccc(F)cc1 : 95.62%
* O=S1(=O)CCC(n2cc(C3=CCN(CCc4ccccc4)CC3)cn2)C1 (centres undefined) : -102.1%
* O=C(Cc1c[nH]c2ncccc12)NCC(O)c1ccsc1 (centres undefined) : -28.04%
* CCC(C)N1CCc2c(C(=O)N3CCOCC3)n[nH]c2C1 (centres undefined) : -19.07%
* Cc1cnn(CC2CCCN2Cc2cc(=O)n3cccc(C)c3n2)c1 (centres undefined) : 1.29%
* O=S(=O)(c1ccc(-c2cnco2)cc1)N1CCCC2(CCNCC2)CC1 : -21.06%
* CCOC(=O)c1n[nH]cc1CN1CCOC(Cc2ccccc2)C1 (centres undefined) : -27.49%
* O=C(O)C(F)(F)F.O=C(O)C(F)(F)F.c1cc(CNCC2OCCc3cn(CC4CC4)nc32)cs1 (centres undefined) : -38.5%
* COc1cc(N2CCC(c3nccn3CCCN(C)C)CC2)nc(N)n1 : -13.97%
* CCc1nc(C(=O)N(C)CC(=O)N(C)C)nn1-c1ccccc1Cl : -47.8%
* Cl.O=C(NCC1CCC2(CCNCC2)CO1)c1cnccn1 (centres undefined) : -62.85%
* COc1ccc(Oc2nccc3occc23)cc1CN1CCCC1 : -8.53%
* CCc1n[nH]c(C2CN(C(=O)CCOCC(F)(F)F)CCO2)n1 (centres undefined) : -5.583%
* CN(Cc1nnc2n1CCC2)C(=O)c1ccc2c(c1)CCO2 : -19.25%
* O=C(c1cnco1)N1C[C@@H](O)[C@H](Oc2cccc(F)c2)C1 : -14.94%
* [H][C@@]12CN(C(C)=O)C[C@]1(C(=O)NC)CCC21CCN(S(C)(=O)=O)CC1 : -27.33%
* O=C(O)C(F)(F)F.O=C(O)C(F)(F)F.[H][C@@]12CN(Cc3nccs3)C[C@]1([H])OCCN2c1ccc(C)nn1 : -7.814%
* O=C(c1ccc(F)c(Br)c1)N1CCCN2CCCC2C1 (centres undefined) : 1.675%
* CN(Cc1cc(Br)cn1C)C(=O)c1ccsc1 : 19.55%
* CN1CCC(CNC(=O)Cc2ccc(N(C)C)cc2)CC1 : -28.13%
* Cc1cnc(NCC(C)(C)N2CCN(C)CC2)nc1 : -44.57%
* CS(=O)(=O)N1CCC[C@]2(C[C@@H](Oc3ncccc3F)CO2)C1.O=C(O)C(F)(F)F : 1.823%
* c1cnc(-c2cnc(N3CCSCC3)nc2C2CC2)cn1 : 22.17%
* CN(C)CC1CN(C(=O)CCc2ccccc2)Cc2nccn2C1.O=C(O)C(F)(F)F (centres undefined) : -27.78%
* O=S(=O)(N1CCCC1)N1CCCCC1CCc1ccccc1 (centres undefined) : -9.163%
* COCCN1CCC(CN(CC2CCCO2)C(=O)Cn2cccn2)CC1 (centres undefined) : -16.85%
* CC(=O)N1CCC2(CC1)CN(C(=O)c1cccc3[nH]ccc13)C2 : -9.59%
* CCOCC1(CNCc2cc(O)c3cc(C)ccc3n2)CC1 : -13.89%
* O=C(O)C(F)(F)F.[H][C@@]12C[C@H](c3nc(C)no3)CN(C3CCC3)[C@]1([H])CCO2 : -21.54%
* CC(C)NC(=O)c1cc2c(s1)CCN2C(=O)CN(C)C : -36.91%
* COCCNC(=O)c1cc(S(=O)(=O)N2CCCC2)cs1 : -5.001%
* O=C(c1cc2c(s1)CCC2)N1CCCC1c1noc(C2CC2)n1 (centres undefined) : -3.872%
* O=C(C1CC1)N1CCCN(c2ncnc3c2CCNCC3)CC1 : -20.41%
* Cc1nccn1-c1ccc(N2CCC(N[C@H](C)C(C)C)CC2)cc1 : 15.54%

5 of the entries, repeated:

| compound | percent effect |
|---|---|
| `O=C(c1cnco1)N1C[C@@H](O)[C@H](Oc2cccc(F)c2)C1` | -14.94 |
| `CCOCC1(CNCc2cc(O)c3cc(C)ccc3n2)CC1` | -13.89 |
| `O=S(=O)(c1ccc(-c2cnco2)cc1)N1CCCC2(CCNCC2)CC1` | -21.06 |
| `CCOC(=O)c1n[nH]cc1CN1CCOC(Cc2ccccc2)C1` (centres undefined) | -27.49 |
| `O=S(=O)(N1CCCC1)N1CCCCC1CCc1ccccc1` (centres undefined) | -9.163 |